Assay results taken from PubChem BioAssay AID2685 (National Center for Advancing Translational Sciences (NCATS), 2010).
This is one part of the list. Further columns of the screen follow, without active or inactive calls. The list favours compounds with an active or inconclusive main result. Words in brackets tell the shape of the fitted curve; partial curves, single points and poor fits give uncertain potencies.

Assay: qHTS Assay for Lipid Storage Modulators in Drosophila S3 Cells;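 as to cell number change: cells counted by Cell Tracker Red CMTPX staining in the red channel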
Conditions: BODIPY lipid droplet fluorescence, 18-24 h; for cell number change: measured here: cell count max response, cells fed with added oleic acid
Summary of the method: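 Drosophila S3 cells got compounds at several concentrations plus oleic acid (400 uM solution). Laser-scanning cytometry with 488 nm excitation read lipid droplets at 500-530 nm and cells at 575-640 nm. Percent activity was relative to 20 uM Triacsin C.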

[1] = measured here: cell number channel AC50, cells fed with added oleic acid
[2] = measured here: lipid fluorescence (Fed channel) AC50, cells fed with added oleic acid

Compound | cell number change [%] | AC50 [1] | AC50 [2]
O=C(O)c1cccc(S(=O)(=O)Nc2cccc(S(=O)(=O)N3CCCCCC3)c2)c1 | 11.4 | 0.0058 µM [rising, full curve, poor fit] | 
Cc1onc(-c2ccccc2Cl)c1C(=O)OCc1nnc(-c2ccccc2)o1 | -26 |  | 0.092 µM [falling, full curve, poor fit]
CCc1ccc(OCCNC(=O)c2ccccc2SCc2ccccc2)cc1 | -7.52 |  | 7.31 µM [falling, single point]
O=C(NCCN1CCOCC1)c1ccc2c(c1)N(Cc1ccccc1)CCS2 | 23.5 |  | 
COc1ccc(OC)c(NC(=S)NCc2ccccc2OC)c1 | -8.27 |  | 6.51 µM [falling, single point]
COn1c(SCc2cccnc2)nc2ccccc2c1=O | 12.9 | 1.84 µM [rising, single point] | 4.61 µM [rising, partial curve, poor fit]
CCOc1ccc(NC(=O)CN(C)C(=O)CC2CCCC2)cc1OCC | 40.6 | 32.6 µM [rising, partial curve, poor fit] | 9.2 µM [rising, partial curve]
O=C(CCc1ccccn1)NC1CCCc2c1cnn2-c1ccc(F)cc1F (stereo unspecified) | -36.2 | 13 µM [falling, partial curve] | 13 µM [falling, partial curve]
O=C(O)CC(C(=O)Nc1cccc(C(F)(F)F)c1)C1CCCO1 (stereo unspecified) | 0.0957 | 6.51 µM [falling, single point] | 6.51 µM [falling, single point]
C#CCn1cc(Cl)cc(C(=O)Nc2ccccc2)c1=O | 25.7 |  | 1.46 µM [rising, partial curve]
CN(C(=O)c1coc(=O)c2ccccc12)c1ccc(Br)cc1 | 30.1 |  | 29.1 µM [rising, partial curve, poor fit]
CCN1CCN(C(=O)/C(C#N)=C/c2ccc(OC(F)F)cc2)CC1 | -47.3 | 16.4 µM [falling, single point] | 16.4 µM [falling, partial curve]
Cc1ccc(NC(=O)COc2ncnc3cc([N+](=O)[O-])ccc23)cc1S(=O)(=O)N1CCOCC1 | 17.2 |  | 0.0058 µM [falling, full curve, poor fit]
O=C(CSc1ccsc1[N+](=O)[O-])NCCc1ccccc1 | 40.2 | 9.2 µM [rising, single point] | 
COc1ccc(-c2csc(Nc3ccc(S(=O)(=O)Nc4cc(C)on4)cc3)n2)cc1C | 110 | 29.1 µM [rising, single point] | 23.1 µM [rising, partial curve]
NNS(=O)(=O)c1ccc(Sc2ccccn2)c([N+](=O)[O-])c1 | 28.4 |  | 1.3 µM [rising, partial curve]
CC(NC(=O)CCc1nnc(C2(c3ccc(Cl)cc3)CCC2)o1)C1CC1 (stereo unspecified) | -16.9 |  | 0.00461 µM [falling, full curve]
O=C(COC(=O)c1ccccc1F)Nc1cccnc1Cl | 19 |  | 6.51 µM [falling, single point]

Compound | cell number change [%] | AC50 [1] | AC50 [2]
Cc1cccc(NC(=O)CN2C(=O)N/C(=C\c3cccn3-c3cccc(C(=O)O)c3)C2=O)c1 | 3.66 | 0.13 µM [falling, full curve, poor fit] | 0.146 µM [falling, full curve, poor fit]
CC(Sc1nnnn1-c1ccc(O)cc1)C(=O)NNC(=O)c1ccc(F)cc1 (stereo unspecified) | 2.89 |  | 20.6 µM [rising, partial curve]
COC(=O)c1c(NC(C)=O)sc2c1CCCC2 | -26.8 |  | 4.61 µM [falling, partial curve]
CCOC(=O)c1cc(-c2nnc(SCC(=O)Nc3ccc(F)cc3)o2)c(C)nc1C | -1.07 |  | 
CCN1/C(=C\C(C)=O)Sc2ccc(OC)cc21 | 52.2 |  | 
Clc1cccc(Nc2nc(-c3cccnc3)cs2)c1 | -5.27 |  | 0.651 µM [falling, single point]
CCOC(=O)c1c(C)[nH]c(C(=O)OCC(=O)NC2CCS(=O)(=O)C2)c1C (stereo unspecified) | 147 | 4.61 µM [rising, full curve] | 3.66 µM [rising, full curve]
COc1ccc(C)cc1-n1nnnc1SCC(=O)NC1CCS(=O)(=O)C1 (stereo unspecified) | -11.4 |  | 0.82 µM [rising, single point]
O=C(O)CCN1Cc2ccccc2C1=O | -47.4 | 0.0517 µM [falling, full curve] | 0.517 µM [falling, full curve, poor fit]
O=C(N/C(=C/c1cccs1)C(=O)N1CCCC1)c1ccccc1 | -2.63 |  | 35.5 µM [falling, single point]
C#CCNC(=O)C1=C[C@@H](c2cn(C(C)=O)c3ccccc23)C[C@@H](OCCCCO)O1 | -19.3 |  | 29.1 µM [falling, single point]
COCCCn1c2nc3ccccc3nc2c2c(=O)n(-c3ccccc3OC)cnc21 |  | 0.259 µM [rising, partial curve, poor fit] | 6.51 µM [rising, single point]
COc1ccc(S(=O)(=O)N2CCCCCC2)cc1NS(=O)(=O)c1cc(C(=O)O)cc(C)c1C | -5.89 |  | 0.651 µM [falling, partial curve, poor fit]
COc1ccc(N2C(=O)CC(N3CCCCC3)C2=O)cc1 (stereo unspecified) | -29.2 | 4.61 µM [falling, full curve, poor fit] | 0.13 µM [falling, full curve, poor fit]
N#Cc1c2n(c3c(=S)nc[nH]c13)CCCCC2 | -11.3 |  | 0.00517 µM [falling, full curve, poor fit]
Cc1ccccc1CS(=O)(=O)Cc1ccc(C(=O)NCC2CCCO2)o1 (stereo unspecified) |  |  | 20.6 µM [rising, single point]
CCCc1cnc(N2CCN(C(=S)NC)CC2)nc1 | 13.2 | 2.91 µM [falling, single point] | 

Molecules above that contain a cyano group:
Compound | cell number change [%] | AC50 [1] | AC50 [2]
CCN1CCN(C(=O)/C(C#N)=C/c2ccc(OC(F)F)cc2)CC1 | -47.3 | 16.4 µM [falling, single point] | 16.4 µM [falling, partial curve]
N#Cc1c2n(c3c(=S)nc[nH]c13)CCCCC2 | -11.3 |  | 0.00517 µM [falling, full curve, poor fit]
